Results are given in words; binding and its absence hold for the method and conditions named. Some results given as binding are weak or reduced against the parent protein; the word gives no strength.

Test [1] concerns the target T1, Human LPL (lipoprotein lipase) (human, UniProt P06858 28-475, R324A).
T1 sequence (looked up): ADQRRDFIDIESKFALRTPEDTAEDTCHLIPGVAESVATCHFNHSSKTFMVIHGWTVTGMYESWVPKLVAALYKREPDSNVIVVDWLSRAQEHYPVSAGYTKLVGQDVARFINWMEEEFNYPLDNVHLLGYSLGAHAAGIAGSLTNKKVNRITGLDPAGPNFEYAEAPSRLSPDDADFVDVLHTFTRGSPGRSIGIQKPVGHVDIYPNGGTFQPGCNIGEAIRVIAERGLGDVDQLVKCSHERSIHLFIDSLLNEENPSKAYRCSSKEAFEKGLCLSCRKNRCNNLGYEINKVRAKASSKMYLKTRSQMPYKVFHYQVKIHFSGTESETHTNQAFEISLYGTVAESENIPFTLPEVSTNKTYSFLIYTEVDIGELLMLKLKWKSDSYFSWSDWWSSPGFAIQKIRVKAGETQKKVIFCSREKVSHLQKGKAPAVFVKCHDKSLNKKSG
The test can be described thus: SPR; 12.5 nM hLPL captured on a high density of biotinylated sulfated heparin dp4 fragments on a streptavidin-coated CM5 chip; GPIHBP1 variants injected in twofold dilutions (1.25–200 nM) for 250 s at 20 ul/min; 10 mM Hepes pH 7.4, 150 mM NaCl, 4 mM CaCl2, 10% glycerol, 0.05% P20, 0.2 mg/ml BSA; both purified.

Test [2] addresses T1, Human LPL (lipoprotein lipase). Put plainly: cross-linking; zero-length EDC crosslinking: GPIHBP1 carboxylates preactivated with EDC, then hLPL added (21 uM GPIHBP1, 4 uM hLPL, 1 mM EDC), 10 mM MES, 150 mM NaCl, pH 5.0, 22°C, 2 h or 4 h; SDS-PAGE bands digested with trypsin, crosslinks identified by LC-MS/MS; both purified.
The target of another test is T2, Mouse LPL (mouse) (UniProt P11152).
T2 sequence: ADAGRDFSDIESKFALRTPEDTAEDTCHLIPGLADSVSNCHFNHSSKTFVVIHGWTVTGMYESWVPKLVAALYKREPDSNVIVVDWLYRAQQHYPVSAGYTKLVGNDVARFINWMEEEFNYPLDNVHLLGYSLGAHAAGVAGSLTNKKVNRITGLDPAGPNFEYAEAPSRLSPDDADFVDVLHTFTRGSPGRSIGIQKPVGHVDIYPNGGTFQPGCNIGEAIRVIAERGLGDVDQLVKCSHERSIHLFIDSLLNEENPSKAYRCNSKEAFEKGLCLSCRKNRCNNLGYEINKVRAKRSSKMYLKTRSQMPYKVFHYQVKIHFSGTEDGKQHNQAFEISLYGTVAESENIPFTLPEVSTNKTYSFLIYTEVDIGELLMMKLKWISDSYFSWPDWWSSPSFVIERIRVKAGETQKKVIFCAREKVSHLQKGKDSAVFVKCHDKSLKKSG
Put plainly: native gel or EMSA; native PAGE of purified GPIHBP1 charge variants with hLPL, bLPL or mLPL (supplemental Fig. S1); both purified. For orientation: In EMSA bound probe runs differently from free probe, usually more slowly.

Test [3] concerns the target T1, Human LPL (lipoprotein lipase). Described as above.

B1: GPIHBP1^34–131 (LU domain only, lacking the acidic tail) (domain or fragment, UniProt Q8IV16 54-151)
chain: LPGGGSRVLLRCYTCKSLPRDERCNLTQNCSHGQTCTTLIAHGNTESGLLTTHSTWCTDSCQPITKTVEGTQVTMTCCQSSLCNVPPWQSSRVQDPTG
Consider B1, for which the binding entry in test [1] was “binds”.

B2: GPIHBP1^1–131/R38G (domain or fragment, human, UniProt Q8IV16 21-151, looked up)
chain: QTQQEEEEEDEDHGPDDYDEEDEDEVEEEETNRLPGGGSRVLLRCYTCKSLPRDERCNLTQNCSHGQTCTTLIAHGNTESGLLTTHSTWCTDSCQPITKTVEGTQVTMTCCQSSLCNVPPWQSSRVQDPTG
modifications: sulfated Tyr18; one bi-antennary N-linked glycosylation
For the molecule B2, the binding entry in test [1] was “binds”.

B3: GPIHBP1^Cluster2-neutral (domain or fragment, human, UniProt Q8IV16 21-151, looked up)
chain: QTQQEEEEEDEDHGPDDYNQQNQNQVQQQQTNRLPGGGSRVLLRCYTCKSLPRDERCNLTQNCSHGQTCTTLIAHGNTESGLLTTHSTWCTDSCQPITKTVEGTQVTMTCCQSSLCNVPPWQSSRVQDPTG
modifications: Tyr18 sulfation absent; one bi-antennary N-linked glycosylation
notes: Construct from VectorBuilder Inc; source: Drosophila S2-cells, secreted, purified, D3 tag removed; not shown: uPAR domain III, N-terminal, cleaved
As for B3, the binding entry in test [2] is listed as “binds weakly”; with Mouse LPL (mouse), “binds”; in test [3] it was “binds”; in test [1], “binds”.

Source of the values: publication PMC11869522, “Competitive displacement of lipoprotein lipase from heparan sulfate is orchestrated by a disordered acidic cluster in GPIHBP1” (Journal of Lipid Research, 2025).
